Laboratory results reported in publication PMC12362252.
Changes are numbered by the printed parent chain. These are yes or no findings as the source states them, for the method shown. Binding seen in cells or lysates may run through a third protein. Binding calls can cover weak binding; strength is not graded here. Tags and fused reporters may be left off the sequences shown.

Chains of the proteins cited; added tags and fusions are not shown. Lines headed by an entry give the natural chain unless they say otherwise; changes in a name come on top.
UniProt H2KYR1: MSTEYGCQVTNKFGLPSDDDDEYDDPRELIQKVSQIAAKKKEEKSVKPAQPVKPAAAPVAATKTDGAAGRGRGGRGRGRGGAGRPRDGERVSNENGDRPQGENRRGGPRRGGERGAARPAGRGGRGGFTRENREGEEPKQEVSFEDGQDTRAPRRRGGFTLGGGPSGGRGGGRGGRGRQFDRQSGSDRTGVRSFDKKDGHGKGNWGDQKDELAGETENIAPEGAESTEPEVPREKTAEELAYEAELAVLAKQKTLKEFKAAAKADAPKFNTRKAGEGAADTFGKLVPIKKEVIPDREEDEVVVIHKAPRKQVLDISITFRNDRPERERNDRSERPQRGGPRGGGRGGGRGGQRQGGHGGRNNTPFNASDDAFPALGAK

Tests used:
[1] = biological target: T1, 3X FLAG ADR-1 dsRBD1 (K223E, K224A, K227A) (C. elegans) (UniProt Q9U3D6); assay: co-IP; ADR-1 IP with anti-FLAG magnetic beads from lysates of L1 animals without UV crosslinking; 1 h at 4°C; washes with 0.5 M NaCl, 160 mM Tris-HCl pH 7.5, 0.1% NP-40, 0.25% Triton X-100; blot with VIG-1 antibody; animals treated with control or gsk-3 RNAi
T1 sequence: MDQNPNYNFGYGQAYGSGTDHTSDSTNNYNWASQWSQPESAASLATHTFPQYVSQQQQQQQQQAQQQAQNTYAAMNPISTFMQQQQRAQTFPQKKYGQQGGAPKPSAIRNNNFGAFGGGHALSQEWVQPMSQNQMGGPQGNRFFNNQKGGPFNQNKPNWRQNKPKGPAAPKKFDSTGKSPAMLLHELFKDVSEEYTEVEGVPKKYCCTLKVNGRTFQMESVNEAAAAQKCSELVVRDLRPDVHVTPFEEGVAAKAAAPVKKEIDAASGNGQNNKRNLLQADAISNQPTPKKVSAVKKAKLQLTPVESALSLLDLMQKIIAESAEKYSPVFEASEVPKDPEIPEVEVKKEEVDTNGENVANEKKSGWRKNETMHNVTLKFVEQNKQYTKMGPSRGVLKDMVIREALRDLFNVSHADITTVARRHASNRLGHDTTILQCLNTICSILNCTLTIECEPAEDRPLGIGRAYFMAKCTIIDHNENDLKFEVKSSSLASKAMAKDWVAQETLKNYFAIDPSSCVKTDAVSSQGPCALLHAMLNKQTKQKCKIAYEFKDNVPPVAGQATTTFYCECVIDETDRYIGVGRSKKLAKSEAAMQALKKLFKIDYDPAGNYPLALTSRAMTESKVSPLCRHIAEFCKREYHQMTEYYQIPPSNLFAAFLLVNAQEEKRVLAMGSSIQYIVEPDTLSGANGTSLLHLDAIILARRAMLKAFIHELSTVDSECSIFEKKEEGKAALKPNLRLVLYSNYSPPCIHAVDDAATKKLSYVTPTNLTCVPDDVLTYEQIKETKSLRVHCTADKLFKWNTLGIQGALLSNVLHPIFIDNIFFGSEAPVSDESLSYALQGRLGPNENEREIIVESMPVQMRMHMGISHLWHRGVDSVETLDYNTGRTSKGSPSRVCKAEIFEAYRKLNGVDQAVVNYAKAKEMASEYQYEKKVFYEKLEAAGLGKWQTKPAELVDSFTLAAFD

[2] = biological target: T2, 3X FLAG ADR-1 (C. elegans) (UniProt Q9U3D6); assay: as above
T2 sequence: T1 sequence with E223K, A224K, A227K

## VIG-1 (from UniProt H2KYR1)
[1]
  binding: binds
[2]
  binding: binds
